Test results published in PubChem BioAssay AID624291 (National Center for Advancing Translational Sciences (NCATS), 2012).
In all, about 350,000 compounds went through this assay and about 220 (0.063%) were called active. Inconclusive results, whose numbers are uncertain, are shown with a selection of clear calls. Calls come from the whole dose curve; as a rule, active = well fitted activation curve with a large enough effect; inconclusive = small, poorly fitted or top-dose-only effect; inactive = no such curve, though single readings can be large or run the other way. A potency beside an inconclusive call is a rough fit, not a confirmed value.

Experiment: qHTS for Activators of Integrin-Mediated Alleviation for Muscular Dystrophy; note: nearly all actives have a fitted effect of over 60% in size;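 for activation: 100% = response of the positive control SU9516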
Conditions: alpha7betagal myoblasts, beta-gal FDG fluorescence, 48 h; activation: at 38.3 µM (top of the series)
Procedure, shortened: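 Alpha7betagal+/- myoblasts (passage 13) were plated 16-24 hr, then exposed to compounds (1:260 dilution of DMSO stock) for 48 hours at 37C. After MPER lysis, β-galactosidase reporter activity was read as FDG fluorescence (ex 480/em 540) after 30 minutes.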
Potency is the fitted concentration of half-maximal effect.

Potency, inactive:
CCn1cc(/C=N/NC(=O)c2ccc3c(c2)OCO3)c(C)n1, CCn1c(SCC(=O)Nc2sc3c(c2C#N)CCCC3)nnc1-c1ccco1, COc1cccc(CNC(=O)C2CCN(S(=O)(=O)c3ccccc3)CC2)c1, O=C(/C=C/c1c(Cl)nc2ccccn12)Nc1ccc(F)cc1, CCOC(=O)Cc1csc(NC(=S)NC(=O)c2cccc([N+](=O)[O-])c2)n1, Cc1cc2c(c(C)c1CCO[C@@H]1O[C@H](CO)[C@@H](O)[C@H](O)[C@H]1O)C(=O)[C@@H](C)[C@@H]2O, CCN(CC(=O)NCc1ccc(Cl)cc1)C(=O)CSc1cc(C)ccc1C, O=S(=O)(c1ccc(Br)cc1F)N1CCC(O)CC1, CCC(=O)c1cn(CC(=O)Nc2c(C)cccc2C)c2ccccc12, CCCCC(CC)Cn1c(N)c(C#N)c2nc3ccccc3nc21 (stereo unspecified), O=C(Nc1cccnc1)c1ccc(S(=O)(=O)c2ccc(Cl)cc2)cc1, Cc1ccc(C(=O)CN(CCC(=O)O)C(=O)c2ccncc2)cc1, C[C@@H]1CN([C@@H](C)CO)S(=O)(=O)c2ccc(-c3ccccc3)cc2O[C@@H]1CN(C)Cc1ccccc1C(=O)O, FC(F)(F)c1cccc(CN2CCC(c3cc(-c4cccs4)n[nH]3)CC2)c1, COc1ccc(Br)cc1CNC(=O)Cc1cccs1, N#Cc1nc(-c2ccco2)oc1N1CCCC1, CC(=O)NCCc1nc2ccccc2n1Cc1ccc(C)cc1, CCOc1cc(S(=O)(=O)NC2CC2)c(OCC)cc1-n1cnnn1, Cc1cccnc1N(C(=O)Nc1ccccc1)C1=NCC(C)(C)S1, OCCNCCOc1ccccc1-c1ccccc1, O=C(CN(Cc1ccc(F)cc1)C(=O)CNS(=O)(=O)c1ccc(Cl)cc1)NCC1CCCO1 (stereo unspecified), Cc1ccc(-c2c(C(=O)N/N=C/c3ccoc3)nnn2-c2nonc2N)cc1, O=C(Nc1ccon1)c1ccc(Cl)c(S(=O)(=O)N2CCCCC2)c1, C/C(=N\Nc1ccc(Cl)cc1)c1c(O)cc(C)oc1=O, COc1ccc2nc3oc(C(=O)N4CCCCC4)cc3cc2c1, CC1Sc2ccc(S(=O)(=O)CCC(=O)N3CCc4ccccc43)cc2NC1=O (stereo unspecified), Cc1cc(NS(=O)(=O)c2ccc(NC(=S)NC(=O)c3cccc(S(=O)(=O)N(C)C)c3)cc2)no1

Potency, inconclusive:
CN(Cc1ccccc1)S(=O)(=O)c1ccc(NC(=O)C2CCCCC2C(=O)O)cc1 (stereo unspecified) 2.82 µM [activator, single point], O=C(COc1ccc(S(=O)(=O)N2CCCC2)cc1)N1CCCC1 3.16 µM [activator, single point], O=C1CCC([N+](=O)[O-])C(c2ccc(-c3ccccc3)cc2)N1 (stereo unspecified) 3.16 µM [activator, single point], O=c1c(Cl)c(NCCO)cnn1-c1cccc(Cl)c1 11.2 µM [activator, partial curve, poor fit], COCCC(=O)N1CCC(Oc2ccc(C(=O)N3CCCCC3COC)cc2)CC1 (stereo unspecified) 5.01 µM [activator, single point], Cc1nn(C(C)C(=O)NCCc2ccccc2)c(=O)c2cc3occc3n12 (stereo unspecified) 2.51 µM [activator, single point], CCC(C(=O)N1CCOCC1)n1nc(C)n2c(cc3cc(C)ccc32)c1=O (stereo unspecified) 7.08 µM [activator, partial curve], CCOc1cccc(OCCNC2CCCC2)c1 5.01 µM [activator, single point], CC(=O)c1ccc(N2Cc3ccccc3/C2=N\C(=O)Nc2ccc(Cl)cc2)cc1 8.91 µM [activator, partial curve, poor fit], COCCn1c(SCC(=O)Nc2ccccc2OC)nc2c(oc3ccccc32)c1=O 28.2 µM [activator, single point], O=C(CN1C(=O)NC(Cc2c[nH]c3ccccc23)C1=O)Nc1ccccc1Br (stereo unspecified) 5.01 µM [activator, single point], O=C1CCC(C(=O)N2CCCC(C(=O)c3ccc4c5c(cccc35)CC4)C2)=NN1 (stereo unspecified) 10 µM [activator, single point], CCNCC(=O)Nc1ccc(N2CCOCC2)cc1 2.24 µM [activator, partial curve, poor fit], CCCOc1ccc(N2C(=O)CC(N(CCc3ccc(OC)cc3)C(=O)c3cccc(F)c3)C2=O)cc1 (stereo unspecified) 4.47 µM [activator, single point], O=C(NCCc1ccccc1)c1ccc2nc3cc(Cl)ccc3c(=O)n2c1 3.55 µM [activator, partial curve, poor fit], Cc1ccccc1C(=O)Nc1ccc2c(c1)OCCO2 4.47 µM [activator, single point], CCOC(=O)N1CCN(S(=O)(=O)c2ccc(C)cc2)C1 28.2 µM [activator, single point], CCOc1ccc(C(C)=O)cc1CSc1nnc(-c2ccncc2)n1CCOC 20 µM [activator, single point], CCN(CC)S(=O)(=O)c1ccc(-c2nnc(SCC(=O)N3c4ccccc4CC3C)o2)cc1 (stereo unspecified) 5.01 µM [activator, single point], COc1ccc(S(=O)(=O)N2CCN(C(=O)c3ccco3)CC2)cc1C(C)(C)C 3.98 µM [activator, single point], Cc1cc(Cl)ccc1OCc1nnc(-c2ccccc2C)o1 11.2 µM [activator, partial curve, poor fit], N#CC(C(=O)c1ccccc1)=C1SCCS1 11.2 µM [activator, partial curve, poor fit], CC(=O)c1ccc(N(CC(=O)NC2CCCCC2)C(=O)CNC(=O)c2cccs2)cc1 11.2 µM [activator, partial curve, poor fit], CCn1c(O)c(N=NC(=O)CNC(=O)/C=C/c2ccccc2)c2ccccc21 25.1 µM [activator, single point], O=C(Nc1nncs1)C1CC(=O)N(C2CCCC2)C1 (stereo unspecified) 11.2 µM [activator, single point], COc1ccc(N(CC(=O)Nc2cccc(C(F)(F)F)c2)S(=O)(=O)c2c(C)[nH]c(=O)[nH]c2=O)cc1 28.2 µM [activator, single point], COc1ccc(C2/C(=C(/O)c3ccc(F)cc3)C(=O)C(=O)N2CCCN2CCOCC2)cc1OC (stereo unspecified) 5.01 µM [activator, single point], Cc1ccccc1C(=O)NNC(=O)c1cccc(Br)c1 28.2 µM [activator, single point], O=C(/C=C/c1ccco1)NCc1ccco1 3.98 µM [activator, single point], COc1ccc(OC)c(NC(=O)COC(=O)/C=C/c2ccco2)c1 10 µM [activator, single point], CC12CCC(=O)N1C(C(=O)Nc1nc3ccccc3s1)CS2 (stereo unspecified) 3.16 µM [activator, single point], Cc1ccc(S(=O)(=O)N(CC(=O)N2CCc3ccccc3C2)c2ccc(Cl)c(Cl)c2)cc1 11.2 µM [activator, partial curve, poor fit], CCC1(C)Cc2ccccc2C(=O)N1 (stereo unspecified) 8.91 µM [activator, partial curve, poor fit], CC(C)[C@H](NC(=O)c1ccc(Br)cc1)C(=O)NC1CCCCC1 4.47 µM [activator, partial curve], Cc1cc(N2CCN(S(=O)(=O)c3ccccc3)CC2)nc2c(C)cccc12 3.55 µM [activator, partial curve, poor fit], CCOC(=O)c1c(NC(=O)COC(=O)C2CC2C)sc(C)c1C (stereo unspecified) 20 µM [activator, single point], CC(=O)c1c(C)[nH]c(C(=O)OCC(=O)N(Cc2ccccc2)C(C)(C)C)c1C 1.58 µM [activator, partial curve, poor fit], COc1cc(/C=C(\C#N)C(=O)N2CCc3ccccc32)ccc1O 7.08 µM [activator, partial curve, poor fit], S=c1[nH]nc(Cc2cccs2)n1-c1ccccc1Cl 31.6 µM [activator, single point], O=[N+]([O-])c1ccc(SCc2ccco2)cc1N1CCOCC1 2.24 µM [activator, single point], CC(C)[C@H](NC(=O)C1CCCC1)c1nc2ccccc2[nH]1 28.2 µM [activator, single point], COc1cccc2c(SCC(=O)N/N=C/c3ccc(O)c(O)c3)cc(C)nc12 1.41 µM [activator, partial curve, poor fit]

activation, inactive:
Cc1cc(C)n(-c2nc(NC(C)C)nc(NC(C)C)n2)n1 -32.6% [at 7.66 µM]

activation, inconclusive:
Cc1cc(S(=O)(=O)NC2CCCCC2)ccc1OCC(=O)N1CCOCC1 57.2% [activator]
